One series relates to Histoplasma capsulatum. Format: cell-based.
The subject of series [1] is mice.
The subject of series [2] is rats.
The test system of series [3] is mice. Particulars: inhalatory application.
The subject of series [4] is rats. Conditions: inhalatory application.
Series [5] concerns Candida strain, which requires histidine. Particulars: Ames test. In general terms: The Ames test uses bacterial strains that need an amino acid and regain growth without it when mutated back.

Like-named read-outs stand apart in the source and are kept apart here.

`C=CCc1ccc(O)c(OC)c1.CCN(CC)CC(=O)Nc1c(C)cccc1C` [Novel Compound, N-[N'-(carboxymethylenyl-2,6-dimethyl-aniline)-N,N-diethylammonium]-[2'-methoxy-4'-(2'-propenyl)]-phenolate.]: in the series on Histoplasma capsulatum, the “R (evaluation of the results by zone diameter)” value is “ES (key: 0mm - 4mm: resistant: R; 5 - 9 mm: moderately sensitive: MS; 10 - 15 mm: sensitive: S; 16 - 20 mm: very sensitive: VS; 21 mm and more: extremely sensitive: ES)”. In the series on Histoplasma capsulatum, this compound gave a zone diameter of 34 mm. For the same compound, the toxicity conclusion entry is “low toxic” in the series with mice [1] (orally (p.o.), applied doses); “low toxic” with rats [2] (orally (p.o.), applied doses); “low toxic” in the series on mice [3] (applied doses); “low toxic” in the series with rats [4] (applied doses). The “oral LD50” value was “over 2,000 µL / kg” with mice [1] (p.o.) and “over 2,250 µL / kg” in the series with rats [2] (p.o.). For the same compound, the lethality entry is on record as “No mouse has ended lethally” in the series on mice [1] (p.o., doses up to 2,000 µL / kg); “No rats have ended lethally” in the series on rats [2] (p.o., doses up to 2,250 µL / kg); “No mouse has ended lethally” with mice [3] (doses up to 2,250 µL / kg); “No rat has ended lethally” in the series on rats [4] (doses up to 2,500 µL / kg). For the same compound, the LD50 result is “over 2,250 µL / kg” in the series with mice [3] (nose-only, 4 hours exposure) and “over 2,500 µL / kg” in the series with rats [4] (nose-only, 6 hours exposure). For the same compound, the mutagenic test results in series [5] (Candida strain requiring histidine, rat liver extract, 1ml of the novel compound added to 20 ml of liquid) is “negative”. For the same compound, the “mutagenic and/or cancerogenic effects (conclusion)” value in series [5] (preliminary results) was “no mutagenic and/or cancerogenic effects”.

The record behind these values is patent EP4014973B1, “INHALED LIQUID FOR THE TREATMENT OF RESPIRATORY INFECTIONS IN HUMANS CAUSED BY PATHOGENS RESISTANT TO ANTIBIOTICS” (Conick Biotech LLC, priority 2020, dated 2022).
